No constants are given. Whether binding was seen depends on the method and setting. Binding seen in cells or lysates may run through a third protein. Some binding calls cover weakened binding; strength is not graded here.
Target: FLAG- and V5-tagged Argonaute2 protein (FLAG-V5-Ago2) (UniProt Q9UKV8)
Experiment: co-IP; Ago-Tag IP: S1 supernatant of Tagger mouse brain homogenate in Polysome Buffer (50 mM Tris pH 7.5, 100 mM KCl, 12 mM MgCl2, 1% Nonidet P-40) with anti-FLAG M2 magnetic beads, 4°C; washes in High Salt and Extra High Salt Buffer; immunoblot

Protein sequences, listed by entry. Tags and fused reporters are not part of them.
UniProt Q8R418: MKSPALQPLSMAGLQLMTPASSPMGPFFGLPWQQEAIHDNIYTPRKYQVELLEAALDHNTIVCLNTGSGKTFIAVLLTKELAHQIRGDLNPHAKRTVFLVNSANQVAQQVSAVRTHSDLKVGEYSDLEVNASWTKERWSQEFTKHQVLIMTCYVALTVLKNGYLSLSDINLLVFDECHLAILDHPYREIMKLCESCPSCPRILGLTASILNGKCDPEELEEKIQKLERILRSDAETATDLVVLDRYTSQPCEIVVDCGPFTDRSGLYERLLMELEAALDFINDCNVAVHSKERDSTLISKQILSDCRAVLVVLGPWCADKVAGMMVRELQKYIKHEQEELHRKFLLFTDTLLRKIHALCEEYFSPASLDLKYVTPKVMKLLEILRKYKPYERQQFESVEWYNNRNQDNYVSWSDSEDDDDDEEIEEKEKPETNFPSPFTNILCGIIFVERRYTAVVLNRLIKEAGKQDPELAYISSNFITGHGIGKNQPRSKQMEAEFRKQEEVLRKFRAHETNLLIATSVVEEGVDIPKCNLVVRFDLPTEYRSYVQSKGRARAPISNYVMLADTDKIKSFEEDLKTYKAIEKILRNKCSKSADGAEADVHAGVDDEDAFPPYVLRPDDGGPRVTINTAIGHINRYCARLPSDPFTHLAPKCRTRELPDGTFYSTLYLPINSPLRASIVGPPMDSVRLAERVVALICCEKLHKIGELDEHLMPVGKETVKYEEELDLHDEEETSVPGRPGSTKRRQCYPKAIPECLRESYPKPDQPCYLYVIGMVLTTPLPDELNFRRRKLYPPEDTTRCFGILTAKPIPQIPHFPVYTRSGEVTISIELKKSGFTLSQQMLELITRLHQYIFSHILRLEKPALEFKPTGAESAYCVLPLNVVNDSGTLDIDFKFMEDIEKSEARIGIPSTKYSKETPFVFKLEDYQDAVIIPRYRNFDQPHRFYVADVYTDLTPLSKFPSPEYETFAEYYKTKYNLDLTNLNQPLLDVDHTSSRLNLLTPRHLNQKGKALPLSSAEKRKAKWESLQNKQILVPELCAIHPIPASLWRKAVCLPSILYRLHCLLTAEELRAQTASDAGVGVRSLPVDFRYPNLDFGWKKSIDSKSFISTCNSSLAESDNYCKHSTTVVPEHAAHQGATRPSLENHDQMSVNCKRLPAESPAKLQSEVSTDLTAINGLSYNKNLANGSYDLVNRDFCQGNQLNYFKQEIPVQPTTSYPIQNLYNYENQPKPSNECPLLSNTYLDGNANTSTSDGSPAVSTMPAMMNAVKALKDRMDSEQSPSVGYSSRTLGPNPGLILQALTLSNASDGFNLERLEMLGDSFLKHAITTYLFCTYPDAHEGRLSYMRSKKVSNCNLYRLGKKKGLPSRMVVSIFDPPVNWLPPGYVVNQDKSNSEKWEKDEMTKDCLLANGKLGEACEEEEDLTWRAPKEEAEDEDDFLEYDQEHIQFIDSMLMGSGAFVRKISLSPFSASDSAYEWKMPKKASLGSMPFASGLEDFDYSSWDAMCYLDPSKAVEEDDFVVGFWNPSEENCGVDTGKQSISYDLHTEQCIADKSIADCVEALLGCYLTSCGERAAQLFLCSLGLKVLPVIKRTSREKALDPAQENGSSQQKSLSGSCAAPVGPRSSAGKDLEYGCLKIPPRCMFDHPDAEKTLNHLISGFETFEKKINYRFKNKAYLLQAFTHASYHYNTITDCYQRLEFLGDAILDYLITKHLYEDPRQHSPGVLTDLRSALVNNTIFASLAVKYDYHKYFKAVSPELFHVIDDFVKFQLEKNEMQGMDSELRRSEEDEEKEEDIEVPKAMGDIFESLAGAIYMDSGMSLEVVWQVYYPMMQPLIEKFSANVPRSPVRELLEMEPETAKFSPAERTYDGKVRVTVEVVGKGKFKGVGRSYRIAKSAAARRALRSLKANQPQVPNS

binding	Substance
binds	Dicer (from UniProt Q8R418 1-1916)
binds	endogenous Argonaute 2 (Ago2) (from UniProt Q8CJG0 1-860)

From PMC6701817
